The exact form of at least one protein or probe is not confirmed. Negatives hold for the conditions tested. Protein sequences can lack the tags named with them.
System: T1, GdmRIII (Streptomyces autolyticus CGMCC0516)
T1 sequence (looked up, limits assumed): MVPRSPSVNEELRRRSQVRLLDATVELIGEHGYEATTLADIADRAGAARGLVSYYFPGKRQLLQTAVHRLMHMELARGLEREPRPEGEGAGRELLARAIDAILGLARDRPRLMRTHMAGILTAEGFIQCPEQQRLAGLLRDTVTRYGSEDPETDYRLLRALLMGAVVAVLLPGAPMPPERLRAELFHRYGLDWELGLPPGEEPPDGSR
Experiment: competition EMSA
Details: 50-fold excess vs gdmM, gdmN (1.5 uM protein) and elaF (1.2 uM) probes; EMSA: 10 mM Tris-HCl pH 7.5, 50 mM NaCl, 10 mM MgCl2, 1 mM EDTA, 1 mM DTT, 5% glycerol, 0.1 ug/ul poly(dI-dC), 0.3 nM DNA; temperature not given; recombinant protein; probe letters rebuilt from the primers and the genome

“TGACACGGCGCGCTCCGGAAGAGGCGACCGCCACGAAGCGGAATGGCCGGAACGAGGATACGCCACGGCATTCATCGCCTCTTCGCTTTAGGGGCACGCCACCTCGATAGGGGGTTGACCGTGCGGCGCGCGTCCCGGATAACTGAACAGCGCGGTGTGCTGGACGAGATGCGGTGGACCGGGTTAGGGGGCGGAGGTTCCGGTAGGGGTTGATGCTGATGTGGACGCACTGATGGAATCGTTTCCCGATCAATATTCGGTCTGATTCAAGGATCGCGAGTCCATATTTCGTCGACCTCGATCGGGGACCCTCAAC (double strand) [non-specific competitor]”: no binding.
